According to paper PMC10604809:
These are yes or no findings as the source states them, for the method shown. In cells and extracts the contact can be indirect. Some binding calls cover weakened binding; strength is not graded here. Tags and fused reporters may be left off the sequences shown.

The chains behind the UniProt entries cited, without tags or fusion partners.
UniProt P0A6Y8: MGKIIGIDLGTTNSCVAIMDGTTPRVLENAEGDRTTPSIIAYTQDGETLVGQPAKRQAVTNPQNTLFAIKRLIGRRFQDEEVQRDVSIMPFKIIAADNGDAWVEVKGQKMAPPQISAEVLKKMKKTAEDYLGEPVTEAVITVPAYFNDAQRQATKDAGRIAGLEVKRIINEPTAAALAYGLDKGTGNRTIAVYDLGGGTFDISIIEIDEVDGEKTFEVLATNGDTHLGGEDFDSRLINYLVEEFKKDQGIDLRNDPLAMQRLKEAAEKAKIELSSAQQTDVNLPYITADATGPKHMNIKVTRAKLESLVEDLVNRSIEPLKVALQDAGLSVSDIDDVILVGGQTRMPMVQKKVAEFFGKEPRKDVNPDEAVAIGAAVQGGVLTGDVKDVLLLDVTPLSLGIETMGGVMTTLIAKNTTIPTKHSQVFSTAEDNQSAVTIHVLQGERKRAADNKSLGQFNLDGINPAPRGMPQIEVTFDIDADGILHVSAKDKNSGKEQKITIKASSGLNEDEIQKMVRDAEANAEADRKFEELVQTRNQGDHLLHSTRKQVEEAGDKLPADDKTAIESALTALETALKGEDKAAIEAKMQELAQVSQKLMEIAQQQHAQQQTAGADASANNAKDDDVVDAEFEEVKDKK

Biological target: cYFP-tagged DnaK (E. coli HSP70) (E. coli) (UniProt P0A6Y8)
Assay: split reporter; nYFP and cYFP fusions co-expressed from one pRSF-Duet1 construct in E. coli cells; YFP fluorescence seen by fluorescence microscopy

binding: binds
B1: nYFP-tagged AtJ3 (Arabidopsis J3 protein, HSP40 family) (protein, UniProt Q94AW8 1-420)
chain: MFGRGPSKKSDNTKFYEILGVPKSASPEDLKKAYKKAAIKNHPDKGGDPEKFKELAQAYEVLSDPEKREIYDQYGEDALKEGMGGGGGGHDPFDIFSSFFGGGPFGGNTSRQRRQRRGEDVVHPLKVSLEDVYLGTMKKLSLSRNALCSKCNGKGSKSGASLKCGGCQGSGMKVSIRQLGPGMIQQMQHACNECKGTGETINDRDRCPQCKGDKVIPEKKVLEVNVEKGMQHSQKITFEGQADEAPDTVTGDIVFVLQQKEHPKFKRKGEDLFVEHTLSLTEALCGFQFVLTHLDGRSLLIKSNPGEVVKPDSYKAISDEGMPIYQRPFMKGKLYIHFTVEFPDSLSPDQTKALEAVLPKPSTAQLSDMEIDECEETTLHDVNIEDEMRRKAQAQREAYDDDDEDDDHPGGAQRVQCAQQ
